Reference: the supplement of paper PMC4604168 (melanoma cell lines)
The list shows a part of the results. Repeats are few or missing, and single values can be far off.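 Cells were imaged in 1,536-well plates, and nuclei stained with an antibody against cleaved PARP were counted against all DNA-stained nuclei to give the apoptosis fraction. Screening doses were chosen to leave most cells alive, and resting and induced cleaved-PARP levels differ strongly between cell lines.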

Tests used:
Test in all cases: cleaved PARP positive nuclei fraction relative to DMSO control; melanoma cells; higher = more apoptosis
Conditions in all cases: library dose: low library concentration; 72 h
CBRC034 = tested on: CBRC034 (line from a melanoma biopsy)
COLO792 = tested on: COLO792
COLO800 = tested on: COLO800
COLO829 = tested on: COLO829
G361 = tested on: G361
IPC-298 = tested on: IPC-298
IST-MEL1 = tested on: IST-MEL1
LB2518-MEL = tested on: LB2518-MEL
LOXIMVI = tested on: LOXIMVI

| SMILES | cleaved PARP positive nuclei fraction (CBRC034) | cleaved PARP positive nuclei fraction (COLO792) | cleaved PARP positive nuclei fraction (COLO800) | cleaved PARP positive nuclei fraction (COLO829) | cleaved PARP positive nuclei fraction (G361) | cleaved PARP positive nuclei fraction (IPC-298) | cleaved PARP positive nuclei fraction (IST-MEL1) | cleaved PARP positive nuclei fraction (LB2518-MEL) | cleaved PARP positive nuclei fraction (LOXIMVI) |
| --- | --- | --- | --- | --- | --- | --- | --- | --- | --- |
| COC(=O)c1sccc1S(=O)(=O)Nc1ccc(Nc2ccccc2)cc1OC + C/C(O)=C(\C#N)C(=O)Nc1cc(Br)ccc1Br [LFM-A13] (first compound 1 µM, partner dose 2 µM) | 86.3% | 26.6% | 122% | 108% | 23.3% | 43.6% | 83% | 39.4% | 24.1% |
| C[As](C)SC[C@H](NC(=O)CC[C@H](N)C(=O)O)C(=O)NCC(=O)O [Darinaparsin] + COC(=O)c1sccc1S(=O)(=O)Nc1ccc(Nc2ccccc2)cc1OC [GSK0660] (first compound 0.4 µM, partner dose 1 µM) | 101% | 69.3% | 212% | 115% | 50.2% | 115% | 129% | 241% | 78% |
| Cc1nc(Nc2ncc(C(=O)Nc3c(C)cccc3Cl)s2)cc(N2CCN(CCO)CC2)n1 [dasatanib] + C/C(O)=C(\C#N)C(=O)Nc1cc(Br)ccc1Br [LFM-A13] (first compound 0.004 µM, partner dose 2 µM) | 462% | 215% | 163% | 91.8% | 132% | 74.1% | 90.3% | 42.2% | 110% |
| O=C(Oc1ccc([N+](=O)[O-])cc1)N1CCC(C(O)(c2ccc3c(c2)OCO3)c2ccc3c(c2)OCO3)CC1 + Cn1cc(/C=C2\C(=O)Nc3cccnc32)c2ccccc21 [GW441756] (first compound 1 µM, partner dose 0.4 µM) | 88.6% | 63.6% | 140% | 91.8% | 167% | 98.2% | 167% | 196% | 76.3% |
| COc1cc(Nc2ncc(F)c(Nc3ccc4c(n3)NC(=O)C(C)(C)O4)n2)cc(OC)c1OC [Tamatinib] + O=C(Oc1ccc([N+](=O)[O-])cc1)N1CCC(C(O)(c2ccc3c(c2)OCO3)c2ccc3c(c2)OCO3)CC1 [JZL184] (first compound 0.4 µM, partner dose 1 µM) | 122% | 166% | 139% | 151% | 103% | 93.7% | 22% | 90.5% | 78.9% |
| COCC[n+]1c2c(n(Cc3cnccn3)c1C)C(=O)c1ccccc1C2=O + C/C(O)=C(\C#N)C(=O)Nc1cc(Br)ccc1Br [LFM-A13] (first compound 0.0004 µM, partner dose 2 µM) | 42.5% | 93.2% | 244% | 87.2% | 84.3% | 87.3% | 101% | 116% | 85.5% |
| CCN(CC)CCCCNc1ncc2cc(-c3cc(OC)cc(OC)c3)c(NC(=O)NC(C)(C)C)nc2n1 + C/C(O)=C(\C#N)C(=O)Nc1cc(Br)ccc1Br [LFM-A13] (first compound 0.1 µM, partner dose 2 µM) | 43.7% | 103% | 173% | 61.3% | 126% | 79.9% | 44.6% | 85.8% | 64.1% |
| Cc1cc(SCc2sc(-c3ccc(C(F)(F)F)c(F)c3)nc2C)ccc1OCC(=O)O + c1cc(-c2cnn3cc(-c4ccc(OCCN5CCCCC5)cc4)cnc23)ccn1 [Dorsomorphin] (first compound 2 µM, partner dose 0.4 µM) | 54.9% | 168% | 99.8% | 198% | 108% | 81.6% | 43.9% | 160% | 18.5% |
| O=C(Oc1ccc([N+](=O)[O-])cc1)N1CCC(C(O)(c2ccc3c(c2)OCO3)c2ccc3c(c2)OCO3)CC1 + CCCCCCCCCCCC1=C(O)C(=O)C=C(O)C1=O [Embelin] (first compound 1 µM, partner dose 1.2 µM) | 124% | 91.8% | 45.7% | 134% | 185% | 169% | 516% | 83% | 74.2% |
| CC(C)(C)c1cnc(CSc2cnc(NC(=O)C3CCNCC3)s2)o1 + C/C(O)=C(\C#N)C(=O)Nc1cc(Br)ccc1Br [LFM-A13] (first compound 0.01 µM, partner dose 2 µM) | 85.1% | 93.5% | 91.8% | 41% | 76% | 59.6% | 42.3% | 93.5% | 78.9% |
| Cn1nnc2c(C(N)=O)ncn2c1=O [temozolomide] + O=C(Oc1ccc([N+](=O)[O-])cc1)N1CCC(C(O)(c2ccc3c(c2)OCO3)c2ccc3c(c2)OCO3)CC1 [JZL184] (first compound 2 µM, partner dose 1 µM) | 161% | 106% | 101% | 146% | 54.4% | 110% | 189% | 71% | 54% |
| COc1cc2ncnc(Nc3ccc(Oc4ccccc4)cc3)c2cc1OC + O=C(Oc1ccc([N+](=O)[O-])cc1)N1CCC(C(O)(c2ccc3c(c2)OCO3)c2ccc3c(c2)OCO3)CC1 [JZL184] (first compound 2 µM, partner dose 1 µM) | 38.1% | 131% | 89.4% | 41.1% | 45.1% | 112% | 43.6% | 124% | 30.4% |
| N#Cc1c(O)c2c(-c3ccc(-c4ccccc4O)cc3)csc2[nH]c1=O + Cc1cc(SCc2sc(-c3ccc(C(F)(F)F)c(F)c3)nc2C)ccc1OCC(=O)O [GW0742] (first compound 2 µM, partner dose 2 µM) | 79% | 94.2% | 228% | 44.1% | 61.4% | 36.5% | 92.3% | 149% | 31.3% |
| COc1cc(Nc2ncc(F)c(Nc3ccc4c(n3)NC(=O)C(C)(C)O4)n2)cc(OC)c1OC [Tamatinib] + Cc1cc(SCc2sc(-c3ccc(C(F)(F)F)c(F)c3)nc2C)ccc1OCC(=O)O [GW0742] (first compound 0.4 µM, partner dose 2 µM) | 39.3% | 185% | 88.7% | 170% | 127% | 63.4% | 54.8% | 113% | 165% |
| N#Cc1c(O)c2c(-c3ccc(-c4ccccc4O)cc3)csc2[nH]c1=O + C/C(O)=C(\C#N)C(=O)Nc1cc(Br)ccc1Br [LFM-A13] (first compound 2 µM, partner dose 2 µM) | 103% | 103% | 81.4% | 78.4% | 129% | 95.1% | 92.2% | 167% | 55.9% |
| CCc1ccc(CCOc2ccc(CC3SC(=O)NC3=O)cc2)nc1 (stereo unspecified) [pioglitazone] + O=C(Oc1ccc([N+](=O)[O-])cc1)N1CCC(C(O)(c2ccc3c(c2)OCO3)c2ccc3c(c2)OCO3)CC1 [JZL184] (first compound 2 µM, partner dose 1 µM) | 67% | 57.4% | 115% | 204% | 62.3% | 164% | 145% | 214% | 15.1% |
| CC1(C)NC(=O)N(c2ccc([N+](=O)[O-])c(C(F)(F)F)c2)C1=O [nilutamide] + C/C(O)=C(\C#N)C(=O)Nc1cc(Br)ccc1Br [LFM-A13] (first compound 1 µM, partner dose 2 µM) | 92.9% | 105% | 102% | 94.1% | 134% | 107% | 156% | 191% | 34.6% |
| NC(=O)Nc1cc(-c2cccc(F)c2)sc1C(=O)N[C@H]1CCCNC1 + C/C(O)=C(\C#N)C(=O)Nc1cc(Br)ccc1Br [LFM-A13] (first compound 0.02 µM, partner dose 2 µM) | 134% | 51.1% | 99.9% | 47.4% | 123% | 55% | 143% | 192% | 641% |
| CN(NC(=O)CC(=O)NN(C)C(=S)c1ccccc1)C(=S)c1ccccc1 + Cc1cc(SCc2sc(-c3ccc(C(F)(F)F)c(F)c3)nc2C)ccc1OCC(=O)O [GW0742] (first compound 0.006 µM, partner dose 2 µM) | 180% | 159% | 27.7% | 125% | 125% | 49.2% | 62.7% | 76.8% | 726% |
| COc1cc2c(Oc3ccc4[nH]c(C)cc4c3F)ncnc2cc1OCCCN1CCCC1 [cediranib] + Cc1cc(SCc2sc(-c3ccc(C(F)(F)F)c(F)c3)nc2C)ccc1OCC(=O)O [GW0742] (first compound 0.4 µM, partner dose 2 µM) | 36.5% | 134% | 97.1% | 32.8% | 22.1% | 78.9% | 69.3% | 332% | 66.4% |
| Cc1cc(SCc2sc(-c3ccc(C(F)(F)F)c(F)c3)nc2C)ccc1OCC(=O)O + CC(C)CCN1c2nc(Nc3cc(F)c(O)c(F)c3)ncc2N(C)C(=O)C1C [BID1870] (first compound 2 µM, partner dose 0.2 µM) | 103% | 59.5% | 20% | 92.6% | 54% | 62.6% | 72.9% | 166% | 173% |
| C[As](C)SC[C@H](NC(=O)CC[C@H](N)C(=O)O)C(=O)NCC(=O)O [Darinaparsin] + COc1cc2ncnc(Nc3ccc(Oc4ccccc4)cc3)c2cc1OC [SrcI1] (first compound 0.4 µM, partner dose 2 µM) | 77.3% | 124% | 80.7% | 68.3% | 105% | 84.2% | 34% | 66.7% | 896% |
| O=S(=O)(c1ccccc1)N(CC(F)(F)F)c1ccc(C(O)(C(F)(F)F)C(F)(F)F)cc1 + C/C(O)=C(\C#N)C(=O)Nc1cc(Br)ccc1Br [LFM-A13] (first compound 1.4 µM, partner dose 2 µM) | 87.7% | 95.6% | 153% | 135% | 124% | 59.1% | 128% | 83.5% | 50% |
| Cc1ccc(NC(=O)c2cccc(N(C)C)c2)cc1NC(=O)c1ccc(O)cc1 + Cc1cc(SCc2sc(-c3ccc(C(F)(F)F)c(F)c3)nc2C)ccc1OCC(=O)O [GW0742] (first compound 2 µM, partner dose 2 µM) | 112% | 110% | 144% | 79% | 84.2% | 51.6% | 185% | 188% | 28.3% |

Some of the entries so far, with tabs:
SMILES	cleaved PARP positive nuclei fraction (CBRC034)	cleaved PARP positive nuclei fraction (COLO792)	cleaved PARP positive nuclei fraction (COLO800)	cleaved PARP positive nuclei fraction (COLO829)	cleaved PARP positive nuclei fraction (G361)	cleaved PARP positive nuclei fraction (IPC-298)	cleaved PARP positive nuclei fraction (IST-MEL1)	cleaved PARP positive nuclei fraction (LB2518-MEL)	cleaved PARP positive nuclei fraction (LOXIMVI)
CCN(CC)CCCCNc1ncc2cc(-c3cc(OC)cc(OC)c3)c(NC(=O)NC(C)(C)C)nc2n1 + C/C(O)=C(\C#N)C(=O)Nc1cc(Br)ccc1Br [LFM-A13] (first compound 0.1 µM, partner dose 2 µM)	43.7%	103%	173%	61.3%	126%	79.9%	44.6%	85.8%	64.1%
Cc1cc(SCc2sc(-c3ccc(C(F)(F)F)c(F)c3)nc2C)ccc1OCC(=O)O + c1cc(-c2cnn3cc(-c4ccc(OCCN5CCCCC5)cc4)cnc23)ccn1 [Dorsomorphin] (first compound 2 µM, partner dose 0.4 µM)	54.9%	168%	99.8%	198%	108%	81.6%	43.9%	160%	18.5%
